The other results are listed elsewhere or left out. Most values lie at the level of the controls, where differences are scatter.
Test system: ppGalNAc-T3 sensor
Assay: T3 sensor activation Q score (MG/GFP ratio z-score vs DMSO controls) (SD units); higher = more sensor activation (inhibition of ppGalNAc-T3 glycosylation)
Details: HEK293 sensor cells; 10 µM; 6 h
Experimental: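 Cells were treated with compound at 10 uM for 6 h, then MG/GFP ratio was read by flow cytometry (10,000 cells per well, duplicate wells). Q = (R - R_neg)/SD_neg relative to DMSO vehicle controls; the signal rises when the glycosyltransferase is inhibited.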

Row | SMILES | T3 sensor activation Q score
1 | Oc1ccc(CN2CCN(c3cccc(Cl)c3)CC2)cc1 | -0.805
2 | Fc1ccc(CN2CCN(Cc3ccccc3)CC2)cc1F | 0.715
3 | Cc1ccc(CN2CCN(C)CC2)cc1 | 1.55
4 | NCCc1nc(N)n[nH]1 | 1.6
5 | CCc1ccc(C(=O)CCN(C)C)cc1 | -0.345
6 | Cc1ccc(CNC(C)Cc2ccccc2)o1 (centres undefined) | -0.37
7 | Fc1ccc(CN2CCN(c3ccccc3)CC2)c(F)c1 | -0.22
8 | Cc1ccc(CN2CCN(c3ccccc3)CC2)c(C)c1 | -0.15
9 | COc1cc(Br)c(CN2CCN(c3ccccc3)CC2)cc1OC | 0.41
10 | COc1ccccc1N1C(=O)CC(=O)NC1=O | -0.41
11 | COc1ccccc1N1CCN(Cc2cccc([N+](=O)[O-])c2)CC1 | 0.45
12 | CN1CCN(Cc2ccco2)CC1 | 0.33
13 | O=[N+]([O-])c1ccccc1CN1CCN(c2cccc(Cl)c2)CC1 | 0.125
14 | COc1ccccc1N1CCN(Cc2ccc(Br)cc2)CC1 | 0.02
15 | CN1CCN(Cc2cc(F)ccc2F)CC1 | 0.38
16 | CCOc1ccccc1N1CCN(Cc2ccccc2C)CC1 | 0.5
17 | O=[N+]([O-])c1ccc(CN2CCN(c3ccccc3)CC2)cc1 | 0.75

Row | SMILES | T3 sensor activation Q score
18 | O=[N+]([O-])c1ccccc1CN1CCN(c2ccc(F)cc2)CC1 | 0.12
19 | Cc1ccc(C)c(N2CCN(Cc3ccccc3)CC2)c1 | -0.235
20 | CCN1CCN(Cc2cc(Br)c(OC)cc2OC)CC1 | -0.105
21 | CCN1CCN(Cc2ccc(Cl)cc2)CC1 | 0.08
22 | CCN1CCN(Cc2cccc(OC)c2OC)CC1 | 0.665
23 | CCc1ccc(CN2CCN(CC)CC2)cc1 | 0.35
24 | COc1ccc(CN2CCN(C)CC2)c(OC)c1C | 0.28
25 | CN1CCN(Cc2ccc([N+](=O)[O-])cc2)CC1 | 0.805
26 | Cc1ccc(CN2CCN(C)CC2)c(C)c1 | 0.475
27 | O=[N+]([O-])c1ccc(N2CCN(Cc3ccccc3F)CC2)cc1 | -0.4
28 | CCOc1ccccc1CN1CCN(c2ccc(Cl)cc2)CC1 | 0.28
29 | COc1ccc(CN2CCN(c3ccccc3Cl)CC2)cc1 | -0.26
30 | COc1ccccc1N1CCN(Cc2ccc(C)cc2)CC1 | -0.01
31 | CCOc1ccccc1N1CCN(Cc2ccc(F)cc2F)CC1 | 0.595
32 | CCN1CCN(Cc2cccc(F)c2)CC1 | -0.065
33 | CCOc1ccccc1CN1CCN(c2ccccc2Cl)CC1 | -0.345
34 | CCOc1ccc(CN2CCN(c3ccccc3OC)CC2)cc1 | -1.01

Sorted by number of heavy atoms (smallest number first): part of the list above
Row | SMILES | T3 sensor activation Q score
7 | Fc1ccc(CN2CCN(c3ccccc3)CC2)c(F)c1 | -0.22
30 | COc1ccccc1N1CCN(Cc2ccc(C)cc2)CC1 | -0.01
31 | CCOc1ccccc1N1CCN(Cc2ccc(F)cc2F)CC1 | 0.595

From the supplement of paper PMC5407854, “Inhibitor of ppGalNAc-T3-mediated O-glycosylation blocks cancer cell invasiveness and lowers FGF23 levels” (eLife, 2017)
